Laboratory results taken from patent US6646003B2, “Method of treating ocular inflammatory and angiogenesis-related disorders of the posterior segment of the eye using an amide derivative of flurbiprofen or ketorolac” (Alcon, Inc., priority 2001, dated 2003).
Some of these results come from one statement about several compounds together. For at least one compound, name, drawing or mass did not settle the structure. Some ranges recur; such a range may be that of the whole group of compounds.

Assay: in vitro corneal drug permeation (perfusion chamber, HPLC)
Type: in vitro ADME, NZA rabbits
Details: continued drug perfusion of the corneal epithelium, excised rabbit cornea, GBR buffer
Procedure: Freshly excised corneas were obtained from 6-week old NZA rabbits (1.3-1.5 kg). Corneas were mounted in a modified Lucite perfusion chamber and perfused with glutathione-supplemented bicarbonated Ringer (GBR) buffer as previously described^1. Drug concentrations in GBR buffer were as indicated (FIG. 1), with the corneal epithelial cell layer facing the drug containing donor compartment. The final volume of the donor and receiver side of the perfusion chamber was 7.0 mL. Samples of 0.1 mL were withdrawn from both chambers at the beginning of the experiment and at 20 to 30 minute intervals thereafter through six hours. Samples were mixed with an equal volume of methanol and immediately subjected to HPLC analysis. HPLC analysis was carried out on a 25 cm×4.6 mm I.D. Spherosorb RP-18, 10μ column at a flow rate of 2.0 ml/min. The column effluent was monitored with a flow monitor at a wavelength of 230 nm. Elution of NSAID free acids and amides was accomplished with an eluant mixture composed of methanol:water:phosphoric acid (60/40/1 (v/v/v)) (pH 3.0). The eluant mixture was changed to methanol:water:phosphoric acid (60/40/1 (v/v/v)) (pH 3.0) when suprofen and suprofen amide were subjected to HPLC analysis.

CC(C(N)=O)c1ccc(-c2ccccc2)c(F)c1 (stereo not shown) [amide derivative of flurbiprofen, 2-(3-fluoro-4-phenyl)-propionamide]
permeation coefficient: 3.7-5.7 cm/min^−1×10^−5
